From paper PMC12620516 come the findings set out here.

By UniProt entry, the sequences of proteins in these tests, tags left out. Residues count along the entry.
UniProt Q8K2C6, residues 37-310: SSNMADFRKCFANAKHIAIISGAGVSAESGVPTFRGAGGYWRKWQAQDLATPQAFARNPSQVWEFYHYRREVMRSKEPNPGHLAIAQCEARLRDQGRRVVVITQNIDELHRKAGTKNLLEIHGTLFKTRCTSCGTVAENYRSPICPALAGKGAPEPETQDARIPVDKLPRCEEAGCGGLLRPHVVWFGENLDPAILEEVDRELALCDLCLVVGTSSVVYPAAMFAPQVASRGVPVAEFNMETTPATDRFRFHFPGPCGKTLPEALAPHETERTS

The test deals with Sirtuin 5 (UniProt Q8K2C6). As to the kind of experiment: co-IP; HEK293T cells co-transfected with Sirt5 and Slc25a4 plasmids for 48 h; IP lysis buffer; overnight at 4 °C with anti-Sirt5 and anti-Slc25a4 antibodies; protein A/G magnetic beads; Western blot.

Results are given in words; binding and its absence hold for the method and conditions named. Binding seen in cells or lysates may run through a third protein. Some entries that bind do so weakly or less than the wild type.

B1: Solute Carrier Family 25 Member 4 (protein, UniProt P48962 1-298)
chain: MGDQALSFLKDFLAGGIAAAVSKTAVAPIERVKLLLQVQHASKQISAEKQYKGIIDCVVRIPKEQGFLSFWRGNLANVIRYFPTQALNFAFKDKYKQIFLGGVDRHKQFWRYFAGNLASGGAAGATSLCFVYPLDFARTRLAADVGKGSSQREFNGLGDCLTKIFKSDGLKGLYQGFSVSVQGIIIYRAAYFGVYDTAKGMLPDPKNVHIIVSWMIAQSVTAVAGLVSYPFDTVRRRMMMQSGRKGADIMYTGTLDCWRKIAKDEGANAFFKGAWSNVLRGMGGAFVLVLYDEIKKYV
Consider B1, for which the binding result is listed as “binds”.
